Measurements reported in PubChem BioAssay AID504808 (Drosophila RNAi Screening Center, 2011)
In all, the deposit lists about 21,000 reagents; this is a random part of those that have a named target and a result. In the full data, 18 (0.084%) were called active. 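Raw counts without plate normalisation, one of two replicates; the ratio scores behind the calls were not deposited.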 A number with no mark means an inactive call. A plus sign joins genes that one reagent is predicted to hit. The record does not give: the amount of reagent, the time to read-out.

- Test: 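Genes whose loss lifts activity of an E2F-responsive reporter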 (primary screen)
- Cells: Drosophila S2 cells
- Reagent: long dsRNA against Drosophila genes
- Measured: 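Dual luciferase plate measurements; E2F-specific signal taken as firefly over Renilla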
- Direction: E2F firefly: higher = more E2F reporter activity; Renilla normaliser: higher = more normaliser reporter signal
- Hit rule: 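a knock-down counted as active when the firefly/Renilla E2F signal rose above 50%, a threshold chosen arbitrarily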

snoRNA:Me28S-C3420b + RpS11 [DRSC07396] showed E2F firefly, rep 1 = 97255; Renilla normaliser, rep 1 = 3815. Depletion of Klc (Kinesin light chain) [DRSC11203] resulted in: E2F firefly, rep 1 = 74905; Renilla normaliser, rep 1 = 3417. lwr (lesswright) [DRSC00828] showed E2F firefly, rep 1 = 99135; Renilla normaliser, rep 1 = 3818. For Ald1 (Aldolase 1) [DRSC14109], the entry reads E2F firefly, rep 1 = 1742; Renilla normaliser, rep 1 = 952. Against CG15412 [DRSC00427], the values are E2F firefly, rep 1 = 1.68e5; Renilla normaliser, rep 1 = 5210. Against Arp5 (Actin-related protein 5) [DRSC16350], the values are E2F firefly, rep 1 = 63137; Renilla normaliser, rep 1 = 2746.

For CG32369 [DRSC10042] the deposit lists E2F firefly, rep 1 = 90719; Renilla normaliser, rep 1 = 3712. For CG32369 [DRSC10834], the entry reads E2F firefly, rep 1 = 63567; Renilla normaliser, rep 1 = 3157. After knock-down of CG7059 [DRSC16187] the results were E2F firefly, rep 1 = 1.60e5; Renilla normaliser, rep 1 = 7207.

Ordered by “E2F firefly, rep 1” (highest first): some entries from above
lwr (lesswright) [DRSC00828] → E2F firefly, rep 1: 99135; Renilla normaliser, rep 1: 3818
Klc (Kinesin light chain) [DRSC11203] → E2F firefly, rep 1: 74905; Renilla normaliser, rep 1: 3417

The list goes on:
After knock-down of CG6178 [DRSC15984], the record shows E2F firefly, rep 1 = 80461; Renilla normaliser, rep 1 = 4694. CNT1 + CG13742 [DRSC06413] showed E2F firefly, rep 1 = 1.48e5; Renilla normaliser, rep 1 = 5577. Knock-down of RagA-B (Ras-related GTP binding A/B) [DRSC14450] gave: E2F firefly, rep 1 = 85466; Renilla normaliser, rep 1 = 3576. CG10183 [DRSC14203] gave E2F firefly, rep 1 = 96434; Renilla normaliser, rep 1 = 5687. CG15617 [DRSC06570] gave E2F firefly, rep 1 = 1.48e5; Renilla normaliser, rep 1 = 4788. Against mdy (midway) [DRSC01559], the values are E2F firefly, rep 1 = 1.29e5; Renilla normaliser, rep 1 = 5162.

mdy (midway) [DRSC02250] scored E2F firefly, rep 1 = 94126; Renilla normaliser, rep 1 = 4036. Against 5-HT1B (5-hydroxytryptamine (serotonin) receptor 1B) [DRSC05031], the entry reads E2F firefly, rep 1 = 1.30e5; Renilla normaliser, rep 1 = 4251. Depletion of 5-HT1B (5-hydroxytryptamine (serotonin) receptor 1B) [DRSC05769] gave: E2F firefly, rep 1 = 74393; Renilla normaliser, rep 1 = 4210. With knock-down of CG31262 [DRSC13216] the results were E2F firefly, rep 1 = 79192; Renilla normaliser, rep 1 = 2330. For mEFTu1 (mitochondrial translation elongation factor Tu 1) [DRSC06959], the entry reads E2F firefly, rep 1 = 2854; Renilla normaliser, rep 1 = 194. Depletion of CG14518 [DRSC14870] gave: E2F firefly, rep 1 = 1.05e5; Renilla normaliser, rep 1 = 5489.

Silencing of PpD6 (Protein phosphatase D6) [DRSC00774] came out at: E2F firefly, rep 1 = 1.49e5; Renilla normaliser, rep 1 = 5028. For CG7196 (retired record) [DRSC01000], the entry reads E2F firefly, rep 1 = 1.33e5; Renilla normaliser, rep 1 = 6857. Against CG7196 (retired record) [DRSC03023] the deposit lists E2F firefly, rep 1 = 1.35e5; Renilla normaliser, rep 1 = 5429. Knock-down of Pdxk (Pyridoxal kinase) [DRSC10419] resulted in: E2F firefly, rep 1 = 1.10e5; Renilla normaliser, rep 1 = 5671. Depletion of CG7208 [DRSC16212] came out at: E2F firefly, rep 1 = 1.50e5; Renilla normaliser, rep 1 = 6392. For Ythdf (YTH N6-methyladenosine RNA binding protein) [DRSC16036], the values are E2F firefly, rep 1 = 1.17e5; Renilla normaliser, rep 1 = 5663.

Knock-down of Ythdf (YTH N6-methyladenosine RNA binding protein) [DRSC16037] came out at: E2F firefly, rep 1 = 1.25e5; Renilla normaliser, rep 1 = 6283.
